Literature values in publication PMC411066 (BMC Medicine, 2004).

Legend:
P-gp [1] = settings: cited from earlier work
P-gp [2] = settings: cited from earlier work; remark: listed apart in the source

CC(C)c1c(C(=O)Nc2ccccc2)c(-c2ccccc2)c(-c2ccc(F)cc2)n1CC[C@@H](O)C[C@@H](O)CC(=O)O [atorvastatin]
In vitro P-gp inhibition (P-gp [1]): in vitro P-gp inhibitor | In vivo effects on P-gp (P-gp [2]): demonstrates in vivo effects on P-gp
